{"sequences": {"note": "Protein sequences, listed by entry. Tags and fused reporters are not part of them.", "UniProt Q39255": "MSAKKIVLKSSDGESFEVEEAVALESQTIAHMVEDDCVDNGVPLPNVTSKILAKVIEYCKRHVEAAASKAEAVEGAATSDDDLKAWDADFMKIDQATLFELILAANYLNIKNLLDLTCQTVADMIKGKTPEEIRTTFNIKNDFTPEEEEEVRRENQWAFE"}, "source": "paper doi:10.1101/2020.12.22.424016", "assay_in_all_cases": "two-hybrid", "key": {"[1]": {"target": "T1, F-BOX STRESS INDUCED 1 (FBS1), full-length, yeast two-hybrid fusion (Arabidopsis thaliana) (UniProt Q8GX77)", "T1 sequence": "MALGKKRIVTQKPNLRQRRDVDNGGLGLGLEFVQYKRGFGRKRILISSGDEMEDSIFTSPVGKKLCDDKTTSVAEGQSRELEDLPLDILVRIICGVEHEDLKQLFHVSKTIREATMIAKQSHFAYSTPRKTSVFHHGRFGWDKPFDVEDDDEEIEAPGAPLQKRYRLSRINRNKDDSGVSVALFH"}, "[2]": {"target": "T2, F-BOX STRESS INDUCED 2 (FBS2), yeast two-hybrid fusion (Arabidopsis thaliana) (UniProt O65416)", "T2 sequence": "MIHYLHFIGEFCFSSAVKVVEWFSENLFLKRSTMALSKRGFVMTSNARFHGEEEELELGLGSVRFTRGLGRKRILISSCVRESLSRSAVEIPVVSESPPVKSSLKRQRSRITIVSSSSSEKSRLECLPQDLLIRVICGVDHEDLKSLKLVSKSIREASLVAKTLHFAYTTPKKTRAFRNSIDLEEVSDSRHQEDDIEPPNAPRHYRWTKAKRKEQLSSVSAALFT"}, "[3]": {"target": "T3, F-BOX STRESS INDUCED 3 (FBS3), yeast two-hybrid fusion (Arabidopsis thaliana) (UniProt Q9S9T6)", "T3 sequence": "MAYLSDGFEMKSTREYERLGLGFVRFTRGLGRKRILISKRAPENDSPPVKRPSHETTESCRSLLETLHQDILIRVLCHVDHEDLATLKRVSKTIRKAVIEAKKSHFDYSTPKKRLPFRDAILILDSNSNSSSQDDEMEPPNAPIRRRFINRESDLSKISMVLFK"}, "[4]": {"target": "T4, F-BOX STRESS INDUCED 4 (FBS4), yeast two-hybrid fusion (Arabidopsis thaliana) (UniProt Q5XF11)", "T4 sequence": "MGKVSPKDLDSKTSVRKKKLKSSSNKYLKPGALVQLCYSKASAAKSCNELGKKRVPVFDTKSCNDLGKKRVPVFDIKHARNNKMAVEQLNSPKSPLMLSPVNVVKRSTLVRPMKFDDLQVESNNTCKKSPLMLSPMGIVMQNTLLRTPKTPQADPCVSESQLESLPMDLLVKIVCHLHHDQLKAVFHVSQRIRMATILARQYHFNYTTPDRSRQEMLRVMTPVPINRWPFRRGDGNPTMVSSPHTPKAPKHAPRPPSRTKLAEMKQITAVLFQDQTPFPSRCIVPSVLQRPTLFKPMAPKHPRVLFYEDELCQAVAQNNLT"}, "[5]": {"target": "T1, F-BOX STRESS INDUCED 1 (FBS1), full-length, yeast two-hybrid fusion (Arabidopsis thaliana)", "remark": "listed apart in the source"}}, "note": "Read-outs that look alike come from different tables or passages of the source. No constants are given. Whether binding was seen depends on the method and setting. Some binding calls cover weakened binding; strength is not graded here. Tags and fused reporters may be left off the sequences shown.", "data": [{"molecule": "Arabidopsis SKP1 (ASK1), yeast two-hybrid fusion (from UniProt Q39255 1-160)", "values": [{"measurement": "binding", "setting": "[1]", "value": "binds"}, {"measurement": "binding", "setting": "[2]", "value": "binds weakly"}, {"measurement": "binding", "setting": "[3]", "value": "binds"}, {"measurement": "binding", "setting": "[4]", "value": "binds"}]}, {"molecule": "TOPLESS (TPL), yeast two-hybrid fusion (protein, UniProt Q94AI7 1-1131) MSSLSRELVFLILQFLDEEKFKETVHKLEQESGFFFNMKYFEDEVHNGNWDEVEKYLSGFTKVDDNRYSMKIFFEIRKQKYLEALDKHDRPKAVDILVKDLKVFSTFNEELFKEITQLLTLENFRENEQLSKYGDTKSARAIMLVELKKLIEANPLFRDKLQFPTLRNSRLRTLINQSLNWQHQLCKNPRPNPDIKTLFVDHSCGPPNGARAPSPVNNPLLGGIPKAGGFPPLGAHGPFQPTASPVPTPLAGWMSSPSSVPHPAVSAGAIALGGPSIPAALKHPRTPPTNASLDYPSADSEHVSKRTRPMGISDEVNLGVNMLPMSFSGQAHGHSPAFKAPDDLPKTVARTLSQGSSPMSMDFHPIKQTLLLVGTNVGDIGLWEVGSRERLVQKTFKVWDLSKCSMPLQAALVKEPVVSVNRVIWSPDGSLFGVAYSRHIVQLYSYHGGEDMRQHLEIDAHVGGVNDISFSTPNKQLCVITCGDDKTIKVWDAATGVKRHTFEGHEAPVYSVCPHYKENIQFIFSTALDGKIKAWLYDNMGSRVDYDAPGRWCTTMAYSADGTRLFSCGTSKDGESFIVEWNESEGAVKRTYQGFHKRSLGVVQFDTTKNRYLAAGDDFSIKFWDMDAVQLLTAIDGDGGLQASPRIRFNKEGSLLAVSGNENVIKIMANSDGLRLLHTFENISSESSKPAINSIAAAAAAAATSAGHADRSANVVSIQGMNGDSRNMVDVKPVITEESNDKSKIWKLTEVSEPSQCRSLRLPENLRVAKISRLIFTNSGNAILALASNAIHLLWKWQRNERNATGKATASLPPQQWQPASGILMTNDVAETNPEEAVPCFALSKNDSYVMSASGGKISLFNMMTFKTMATFMPPPPAATFLAFHPQDNNIIAIGMDDSTIQIYNVRVDEVKSKLKGHSKRITGLAFSNVLNVLVSSGADAQLCVWNTDGWEKQRSKVLPLPQGRPNSAPSDTRVQFHQDQAHFLVVHETQLAIYETTKLECMKQWAVRESLAPITHATFSCDSQLVYASFMDATVCVFSSANLRLRCRVNPSAYLPASLSNSNVHPLVIAAHPQEPNMFAVGLSDGGVHIFEPLESEGKWGVAPPAENGSASGAPTAPSVGASASDQPQR", "values": [{"measurement": "binding", "setting": "[5]", "value": "no binding"}]}]}
